Experimental data: PubChem BioAssay AID1259308 (NCATS, 2017)
Screen: 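Genes whose loss raises luciferase production in HEK293 cells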 (primary screen). System: human HEK293 embryonic kidney cells stably expressing firefly luciferase (HEK-CMV-Luc2-Hygro). Reagent: single siRNA against human genes, 0.8 pmol siRNA per well. Timing: 72 h. Read-out: 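Reporter luminescence and viable-cell signal on separate replicate plates, given as percent of non-targeting control and median/MAD z-scores, plus per-cell luciferase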. Scale: total luciferase, z-score: higher = more reporter protein produced. Rule for the call: 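Active when the median/MAD z-score for overall luciferase is greater than 3; a gene was taken forward for validation with new siRNAs if at least two of its three siRNAs passed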. Calls: active = raised luciferase; inactive = no rise.
Shown is one part, drawn at random, of about 59,000 deposited reagents. About 1,510 of all reagents (2.6%) count as active. 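Calls use total luciferase alone and ignore viability, so some active siRNAs may act by altering cell number.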 Entries without a mark were called inactive. Further read-outs or replicates are left out here.

TNFRSF13B [SID160736391] scored total luciferase, z-score 0.00432.
Knock-down of TNFRSF13B [SID160736392] came out at: total luciferase, z-score 0.236.
With knock-down of TNFRSF13B [SID160736393] the results were total luciferase, z-score 0.0698.
Depletion of OR51S1 [SID160755742] gave: total luciferase, z-score 1.05.
Against OR51S1 [SID160755743], the entry reads total luciferase, z-score 0.7.
After knock-down of OR51S1 [SID160755744], the record shows total luciferase, z-score 0.943.

Part of the list above in another layout:
{"gene":"TNFRSF13B","PubChem SID":"SID160736392","total luciferase, z-score":0.236}
{"gene":"TNFRSF13B","PubChem SID":"SID160736393","total luciferase, z-score":0.0698}

Next results follow.
After knock-down of IL18RAP [SID160720854], the record shows total luciferase, z-score 0.525.
IL18RAP [SID160720856] gave total luciferase, z-score -0.28.
For IL18RAP [SID160720857], the entry reads total luciferase, z-score -0.259.
Depletion of WWTR1 [SID160737295] came out at: total luciferase, z-score 1.23.
WWTR1 [SID160737296] scored total luciferase, z-score -0.944.
For WWTR1 [SID160737297], the values are total luciferase, z-score -0.125.
